According to patent US12616761B2 (PROVINCIAL HEALTH SERVICES AUTHORITY, priority 2020, dated 2026):

Assay: general procedure: Fmoc solid-phase peptide synthesis; Fmoc-Rink Amide MBHA resin (CEM, 0.56 mmol/g); DIC/Oxyma (4/8/4 equiv. Fmoc-AA-OH/DIC/Oxyma); cyclization DIC/HOBt
Details: late stage modification step

cyclo[Lys(CysAcid-DOTA)-Tyr-Lys(iPr)-D-Arg-2Nal-D-Asn-D-Glu]-Lys(iPr)
step yield: 80% yield

cyclo[Lys(D-Arg-DOTA-Ga)-Tyr-Lys(iPr)-D-Arg-2Nal-D-Ala-D-Glu]-Lys(iPr)
step yield: 73% yield

cyclo[Lys(CysAcid-DOTA-Ga)-(3-I)Tyr-Lys(iPr)-D-Arg-2Nal-D-Ala-D-Glu]-Lys(iPr)
step yield: 97% yield

cyclo[Lys(CysAcid-DOTA-Ga)-Tyr-Lys(iPr)-D-Arg-2Nal-D-Ala-D-Glu]-Lys(iPr)
step yield: 71% yield

cyclo[Phe-Tyr-Lys(iPr)-D-Arg-2Nal-D-Asn-D-Glu]-Lys(iPr)-Lys(CysAcid2-DOTA-Ga)
step yield: 86% yield

cyclo[Phe-Tyr-Lys(iPr)-D-Arg-2Nal-D-Asn-D-Gu]-Lys(iPr)-Lys(CysAcid-DOTA)
step yield: 74% yield

cyclo[Lys(CysAcid-DOTA)-(4-NH2)Phe-Lys(iPr)-D-Arg-2Nal-Gly-D-Glu]-Lys(iPr)
step yield: 77% yield
